Assay results taken from patent US9157074B2, “Beta-amylase, gene coding therefor and manufacturing method thereof” (Amano Enzyme Inc., priority 2008, dated 2015).
Some of these results come from one statement about several compounds together. At least one compound was matched to its structure with a doubt left.

Tested on: β-amylase
Test: Substrate specificity of β-amylase
Type: biochemical, Bacillus flexus
Conditions: relative to soluble starch = 100%
Experimental: The activity of β-amylase was measured as follows. To 0.5 ml of 0.1M phosphate-HCl buffer solution (pH 5.0) containing 1% soluble starch and 10 mM calcium acetate, 0.5 ml of enzyme solution was added. The mixture was incubated at 37° C. for 30 minutes. Then, 2.5 ml of DNS solution (0.2% DNS, 80 mM NaOH, 0.2 M potassium sodium tartrate tetrahydrate) was added to the mixture so as to stop the reaction. After the reaction was stopped, the reaction mixture was boiled for five minutes, the absorbance was measured at the wavelength of 530 nm. The enzyme amount when the absorbance measured at the wavelength of 530 nm is 1 is defined as one unit.
The β-amylase activity with respect to each substrate was examined. The values are shown as the relative activity when the activity with respect to soluble starch is defined as 100%. As to oligosaccharides, the production amount of maltose was examined by the below-mentioned quantification amount of maltose. After 0.1 u/ml enzyme was reacted to 0.5% of each maltooligosaccharide at 37° C. for 30 minutes, quantification of maltose was carried out by HPLC (Aminex carbohydrate HPX-42A, BIO-RAD). A production amount of maltose when the substrate is soluble starch is defined as 100%, the relative activity with respect to each maltooligosaccharide was calculated from the production amount of maltose.
The values were shown as the relative activity when a production amount of maltose with respect to soluble starch is defined as 100%.

Molecule | substrate specificity (class)
OC[C@H]1O[C@H](O[C@H]2[C@H](O)[C@@H](O)[C@@H](O[C@H]3[C@H](O)[C@@H](O)[C@@H](O[C@H]4[C@H](O)[C@@H](O)C(O)O[C@@H]4CO)O[C@@H]3CO)O[C@@H]2CO)[C@H](O)[C@@H](O)[C@@H]1O (stereo partly drawn) [Maltotetraose] | well acts (relative activity of 50% or more with respect to the basic activity (100%) that is a value when a soluble starch is used as a substrate, the substrate is determined to be a “substrate on which an enzyme acts on well.”)
Maltoheptaose | well acts (relative activity of 50% or more with respect to the basic activity (100%) that is a value when a soluble starch is used as a substrate, the substrate is determined to be a “substrate on which an enzyme acts on well.”)
Maltohexaose | well acts (relative activity of 50% or more with respect to the basic activity (100%) that is a value when a soluble starch is used as a substrate, the substrate is determined to be a “substrate on which an enzyme acts on well.”)
Maltopentaose | well acts (relative activity of 50% or more with respect to the basic activity (100%) that is a value when a soluble starch is used as a substrate, the substrate is determined to be a “substrate on which an enzyme acts on well.”)
Maltotriose | does not act (when the relative activity is less than 10%, the substrate is determined to be a “substrate on which the enzyme does not act.”)
cyclodextrin | does not act (when the relative activity is less than 10%, the substrate is determined to be a “substrate on which the enzyme does not act.”)
